Reference: PMC8729770 (Microbiology Spectrum, 2022)
End groups of sequences in plain letters are not given here.

test: peptide made by a vendor; conditions: whole synthesis, Liquid chromatography-mass spectrometry

| Sequence | final LC-MS purity |
| --- | --- |
| SWWKKVFKPVEKLGQRVRDATIQGIGIAQQGANVLATVRGGPPQ | 96.40% |
| CIANGNGCQPDGRQGNCCSGFCYKQRGWVAGYCRRR | 95.69% |
| GWWKRVFKPVERLGQRVRDAGIQGLQIAQQGANVLATVRGGPPQQ | 90.12% |
| ATCTNWNCRTQCIARGKRGGYCVERNICKCTS | 93.97% |
| QIFAQGGGSPGKGYDIYAQGRAKLWESQNQRNSLHGTASYSQHLGGPYGNSRPNVGGGLTFTHRF | 90.00% |
| LSCLFENQAVSAIACGASCITRKGKRGGWCSNGVCRCTPN | 90.56% |
| IKCVPSQCNQICRVLGKKCGYCKNASTCVCL | 96.43% |
| CINNGDGCQPDGRQGNCCSGYCHKEPGWVTGYCR | 90.94% |
| VTCDLLEPFLGPAPCMIHCIVRFRKRTGYCNSQNVCVCR | 94.26% |
| TTCDLISGTKIENIACAAHCIAMGHKGGYCNSNLICICR | 93.94% |
| RKCTASQCTRVCKKLGYKRGYCQSSTKCVC | 90.22% |
| SAPKLEEESALSYIPDAAEAEIAEPASSHGRVRR | 96.53% |
| GWWKRVFKPVEKFGQRVRDAGVQGIAIAQQGANVLATARGGPPQQ | 90.49% |
| GWWKRVFKPVEKLGQRVRDAGIQGLEIAQQGANVLATARGGPPQQ | 90.85% |

same assay, conditions: whole synthesis, Liquid chromatography-mass spectrometry, several disulfide bridges; run 1

| Sequence | final LC-MS purity |
| --- | --- |
| ATCDLLSPFKVGHAACAAHCIARGKRGGWCDKRAVCNCRK [Hill-Def2b] | 99.10% |
